Data reported in paper PMC12175362.
Results are given in words; binding and its absence hold for the method and conditions named. Binding seen in cells or lysates may run through a third protein. Some binding calls cover weakened binding; strength is not graded here. Where a sequence is shown, tags or fusion partners need not be part of it.

The chains behind the UniProt entries cited, without tags or fusion partners.
UniProt P06733: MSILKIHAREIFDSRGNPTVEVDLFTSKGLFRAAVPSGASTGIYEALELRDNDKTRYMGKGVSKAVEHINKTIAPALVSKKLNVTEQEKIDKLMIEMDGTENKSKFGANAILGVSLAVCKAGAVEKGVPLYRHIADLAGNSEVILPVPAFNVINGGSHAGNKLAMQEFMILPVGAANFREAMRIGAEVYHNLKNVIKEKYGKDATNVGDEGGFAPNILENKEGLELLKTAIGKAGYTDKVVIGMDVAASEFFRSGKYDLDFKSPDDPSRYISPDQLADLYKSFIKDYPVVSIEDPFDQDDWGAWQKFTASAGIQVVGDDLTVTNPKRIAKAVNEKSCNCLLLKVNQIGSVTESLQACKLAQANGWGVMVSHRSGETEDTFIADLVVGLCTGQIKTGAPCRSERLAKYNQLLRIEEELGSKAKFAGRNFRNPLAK

Target: Myc-ENO1 (human) (UniProt P06733)
Test: co-IP; HEK-293T cells co-transfected with Flag-DCDC2 constructs and Myc-ENO1; immunoprecipitated with anti-Myc antibody

binding | Binder
binds | Flag-DCDC2 1–115 (domain or fragment, UniProt Q9UHG0 1-115) MSGSSARSSHLSQPVVKSVLVYRNGDPFYAGRRVVIHEKKVSSFEVFLKEVTGGVQAPFGAVRNIYTPRTGHRIRKLDQIQSGGNYVAGGQEAFKKLNYLDIGEIKKRPMEVVNT
binds | Flag-DCDC2 (protein, UniProt Q9UHG0 1-476) MSGSSARSSHLSQPVVKSVLVYRNGDPFYAGRRVVIHEKKVSSFEVFLKEVTGGVQAPFGAVRNIYTPRTGHRIRKLDQIQSGGNYVAGGQEAFKKLNYLDIGEIKKRPMEVVNTEVKPVIHSRINVSARFRKPLQEPCTIFLIANGDLINPASRLLIPRKTLNQWDHVLQMVTEKITLRSGAVHRLYTLEGKLVESGAELENGQFYVAVGRDKFKKLPYSELLFDKSTMRRPFGQKASSLPPIVGSRKSKGSGNDRHSKSTVGSSDNSSPQPLKRKGKKEDVNSEKLTKLKQNVKLKNSQETIPNSDEGIFKAGAERSETRGAAEVQEDEDTQVEVPVDQRPAEIVDEEEDGEKANKDAEQKEDFSGMNGDLEEEGGREATDAPEQVEEILDHSEQQARPARVNGGTDEENGEELQQVNNELQLVLDKERKSQGAGSGQDEADVDPQRPPRPEVKITSPEENENNQQNKDYAAVA
